Reference: patent US10391168B1, “Anti-CD70 combination therapy” (University of Bern, priority 2014, dated 2019)

System: SD-1 cells
Assay: Chou-Talalay drug combination study, growth inhibition of SD-1 cells (cell numbers after 72 h)
Details: CompuSyn median-effect analysis

## Cc1ccc(NC(=O)c2ccc(CN3CCN(C)CC3)cc2)cc1Nc1nccc(-c2cccnc2)n1 [imatinib]
  m (slope), single treatment: 1.183
